This note sets out measurements from PubChem BioAssay AID2685 (National Center for Advancing Translational Sciences (NCATS), 2010).

This is one part of the list. These are further read-outs of the screen, such as a control signal, another cell line or another target. No call is given for them. The list favours compounds with an active or inconclusive main result. Words in brackets tell the shape of the fitted curve; partial curves, single points and poor fits give uncertain potencies. Where a SMILES comes first, the peptide text is derived from it. The star is where a group is joined. Boc = CC(C)(C)OC(=O)*

The nature of this test: qHTS Assay for Lipid Storage Modulators in Drosophila S3 Cells.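 For cell number change: cells counted by Cell Tracker Red CMTPX staining in the red channel.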 The note with it: BODIPY lipid droplet fluorescence, 18-24 h; for cell number change: measured here: cell count max response, cells fed with added oleic acid. The gist of the method:
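Drosophila S3 cells loaded with oleic acid (400 uM, as added) and compounds at several concentrations; lipid droplets imaged by 488-nm laser-scanning cytometry, 500–530 nm intensity and object ratio to cell channel. Percent activity normalized to 20 uM Triacsin C.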

Where [1] appears, read: measured here: lipid fluorescence (Fed channel) AC50, cells fed with added oleic acid.
The mark [2] stands for this setting: measured here: cell number channel AC50, cells fed with added oleic acid.

The term AC50 denotes the midpoint of the concentration-response curve, whichever way the signal moves. Low readings indicate activity at low concentration, high ones activity only at high concentration. For `CC(C)CC(NC(=O)OC(C)(C)C)C(=O)NC(C(=O)N1CCCC1C(N)=O)C(C)C` (stereo not drawn) (Boc-Leu-Val-Pro-NH2; configuration not given here), the AC50 under setting [1] is 0.58 µM [falling, single point]. As to `Cc1cc(=O)oc2cc(OCC(=O)OCC(=O)Nc3c(C)n(C)n(-c4ccccc4)c3=O)ccc12`, the cell number change is -48.1%. The AC50 under setting [2] is 0.461 µM [falling, full curve]. With `CN1CCN(C(=O)/C(=C/c2cn(S(=O)(=O)N(C)C)c3ccccc23)NC(=O)c2ccccc2F)CC1`, the cell number change was -14.7%. Turning to `O=C(COC(=O)COc1ccccc1)Nc1ccc(Cl)cn1`, the cell number change was -32.4%. In addition, under setting [2], the AC50 is 0.411 µM [falling, partial curve, poor fit]. Besides, the AC50 under setting [1] was 1.46 µM [falling, partial curve, poor fit]. On to `Cc1nn(C)cc1N1C(=O)c2cccc3c(N)ccc(c23)C1=O`, for which the cell number change was -98.8%. For the same molecule, under setting [2], the AC50 is 18.4 µM [falling, single point]. For the same molecule, the AC50 under setting [1] is 20.6 µM [falling, partial curve]. In the case of `Cc1ccc(Cn2nc(C)c(NC(=O)C3(C)CC3(Br)Br)c2C)cc1` (stereo unspecified), the cell number change was -61.9%. Moreover, under setting [2], the half-maximal activity concentration (AC50) is 5.8 µM [falling, partial curve]. In addition, under setting [1], the concentration at half-maximal activity (AC50) was 4.11 µM [falling, partial curve]. With `CCOC(=O)N(C)S(=O)(=O)c1ccccc1[N+](=O)[O-]`, the cell number change stood at 37.5%. Under setting [2], the concentration at half-maximal activity (AC50) was 16.4 µM [rising, single point]. For `CCC(C)C(NC(=O)OCc1ccccc1)C(=O)OCN1C(=O)c2ccccc2C1=O` (stereo unspecified), the cell number change turned out to be 2.69%. Regarding `COc1ccc(S(=O)(=O)N2CCCC(C(=O)NCC3CCCO3)C2)cc1Cl` (stereo unspecified), the cell number change turned out to be 24.3%. Take `Cc1ccc(NC(=O)CCCCCN2C(=O)[C@@H]3Cc4ccccc4CN3C2=O)c(Cl)c1`: the cell number change amounted to 8.02%. Also, under setting [1], the half-maximal activity concentration (AC50) is 6.51 µM [rising, single point].

As for `OCCC1CN(Cc2ccc(F)cc2Cl)CCN1CCc1ccccc1` (stereo unspecified), the AC50 under setting [1] was 29.1 µM [rising, single point]. Regarding `COc1ccccc1-n1cn[nH]c1=S`, the cell number change came to 3.18%. Under setting [2], the AC50 is 7.31 µM [rising, partial curve, poor fit]. Moreover, the concentration at half-maximal activity (AC50) under setting [1] was 29.1 µM [rising, single point].

Take `N#Cc1sc2nc(-c3cccs3)cc(-c3ccc(Cl)cc3)c2c1N`: the cell number change was found to be 32.3%. Further, under setting [2], the AC50 is 18.4 µM [rising, partial curve, poor fit]. Moreover, the concentration at half-maximal activity (AC50) under setting [1] was 18.4 µM [rising, partial curve, poor fit].

`CCc1cccc(OCC(=O)Nc2cc(S(=O)(=O)N3CCOCC3)ccc2N2CCCC2)c1`: under setting [1], the AC50 was 29.1 µM [falling, single point]. As to `COc1cc([N+](=O)[O-])ccc1NC(=O)Nc1cccnc1`, the cell number change is -13.2%. On to `O=c1c(Cl)c(Cl)cnn1Cc1ccccc1Cl`, for which, under setting [1], the AC50 was 11.6 µM [falling, partial curve].

Regarding `CC1CCCN(C(=O)CSc2nnc(-c3ccco3)n2C)C1` (stereo unspecified), the cell number change was 13.2%. For the same molecule, under setting [1], the AC50 was 5.62 µM [falling, single point]. For `CC(=O)NC1c2ccccc2C(=O)N1Cc1ccccc1` (stereo unspecified), the cell number change amounted to 17.3%. Consider `Cn1cccc1/C=N\NC(=O)C1COc2ccc(C(C)(C)C)cc2O1` (stereo unspecified), for which the concentration at half-maximal activity (AC50) under setting [1] was 29.1 µM [falling, single point]. With `Cc1nn(Cc2noc(C(=O)NC3CCC(C)CC3)n2)c(C)c1Br` (stereo unspecified), the cell number change was determined as 2.14%.

Regarding `O=C(CSc1nc2ccccc2o1)Nc1nncs1`, the half-maximal activity concentration (AC50) under setting [1] was 18.4 µM [falling, partial curve]. On to `COc1cc(S(=O)(=O)N2CCOCC2)ccc1NC(=O)CN1c2cccc3cccc(c23)S1(=O)=O`, for which the cell number change was found to be 25.6%. Moreover, the AC50 under setting [1] is 4.11 µM [rising, full curve]. With `CCCCCNC(=O)CSC1=N/C(=C\c2ccc(Cl)c(Cl)c2)C(=O)N1CC`, the AC50 under setting [1] is 5.8 µM [falling, single point]. Regarding `CCCNc1nc2c(c(=O)[nH]c(=O)n2C)n1Cc1cccc(Br)c1`, the cell number change is -22%.

With `CCN(CC(=O)Nc1ccc(NC(C)=O)cc1)C(=O)/C=C/c1ccc(S(=O)(=O)N2CCCCCC2)cc1`, the cell number change was 10.9%. Besides, the AC50 under setting [1] was 0.501 µM [rising, full curve, poor fit]. Consider `COCC(C)n1c(C)cc(C(=O)COC(=O)c2c(C)nn(-c3ccccc3)c2C)c1C` (stereo unspecified), for which the half-maximal activity concentration (AC50) under setting [2] was 6.51 µM [rising, single point]. On to `COCc1ccc(CN2CCC(Oc3ccc(C(=O)NCc4ccccn4)cc3)CC2)o1`, for which the cell number change turned out to be 24.3%. Still for that read-out and setting: under `O=C(O)c1ccc(N/N=C/c2ccc(-c3ccc(Br)cc3)o2)cc1` stands 8.7%. Take `Cc1ccc(NC(=O)C(C)N2C(=O)c3ccccc3C2=O)cc1S(=O)(=O)N1CCOCC1` (stereo unspecified): the AC50 under setting [1] is 0.092 µM [rising, full curve, poor fit]. Turning to `O=S1(=O)C[C@@H]2N=C(N/N=C/c3ccccc3)S[C@@H]2C1`, the cell number change was determined as 8.56%. The AC50 under setting [1] is 0.13 µM [falling, full curve, poor fit].

Consider `O=C(COC(=O)c1ccc(S(=O)(=O)C(F)F)cc1)Nc1ccccc1C(=O)NC1CC1`, for which the cell number change is -5.06%. The AC50 under setting [1] is 2.06 µM [falling, full curve]. Turning to `COc1ccccc1N(C(=O)c1snc(C(N)=O)c1N)C(C(=O)NC1CCCCC1)c1cccc(OC)c1OC` (stereo unspecified), the cell number change was 5.56%. The concentration at half-maximal activity (AC50) under setting [1] was 29.1 µM [falling, single point]. `C=CCCN(Cc1ccccc1)S(=O)(=O)c1cc(Br)ccc1Br`: under setting [1], the half-maximal activity concentration (AC50) was 0.651 µM [falling, single point]. Regarding `COCCNC(=S)N(c1ccccc1)C(C)C`, the cell number change was -0.192%. Also, the AC50 under setting [1] was 0.562 µM [falling, full curve, poor fit].

`CCN(CC)c1ccc(C(=O)N2CCN(Cc3ccccc3)CC2)cc1`: the cell number change was 30.8%. The AC50 under setting [2] is 1.03 µM [rising, full curve, poor fit]. Turning to `Cn1cnc(S(=O)(=O)N2CCc3ccccc32)c1`, the concentration at half-maximal activity (AC50) runs as follows: under setting [2], 0.0058 µM [rising, full curve, poor fit]; under setting [1], 0.00517 µM [falling, full curve, poor fit]. Take `CCOC(=O)c1ccc(N2C(=O)c3cccc4c(C(=O)O)ccc(c34)C2=O)cc1`: the cell number change turned out to be 8.8%. For the same molecule, under setting [1], the AC50 was 18.4 µM [rising, single point]. Turning to `O=C(Nc1ccncc1)c1ccc2ncsc2c1`, the cell number change amounted to 9.95%. Besides, the AC50 under setting [2] is 0.0058 µM [rising, full curve, poor fit]. Moreover, under setting [1], the AC50 was 0.146 µM [rising, full curve, poor fit]. In the case of `CCCN1C(=O)C2(C(C(=O)c3ccc(C)o3)=C(O)C(=O)N2CCCN2CCOCC2)c2ccccc21` (stereo unspecified), the cell number change is -19.3%. Further, under setting [2], the AC50 was 0.164 µM [falling, full curve, poor fit]. Moreover, under setting [1], the concentration at half-maximal activity (AC50) is 4.11 µM [falling, single point].
